According to article PMC10674851 (Pharmaceuticals, 2023):
HELM strings list residues between dots; [ac] is acetyl, [am] amide, other brackets name non-standard units.

Assay: general procedure: Fmoc solid-phase peptide synthesis; Wang resin; HBTU; OxymaPure
Conditions: whole synthesis, RP-HPLC, 214 nm

PEPTIDE1{A.P.L.V.S.W}$$$$V2.0
final HPLC purity: 99%
